Assay: Consumer sensory panel, overall liking of turkey breast roll and bologna
Details: 2% additive, scale of 1 to 9 (9=strongly like)

## CC(O)C(=O)[O-].[Na+] (centres unmarked) [Sodium Lactate, sodium lactate, reference compound]
bologna, 112 consumers
  Mean score for overall liking: 6.2
Turkey breast roll, 132 consumers
  Mean score for overall liking: 6.9
